# Results as given in the supplement of paper PMC8728848.
# This is one part of the list.
# Legend:
# Assay in all cases: glycan array binding signal (z-score within array); higher = stronger binding
# Conditions in all cases: glycan notation: IUPAC condensed, linker removed
# [1] = target: Gal(b1-4)GlcNAc(b1-2)[Gal(b1-4)GlcNAc(b1-6)]Man(a1-6)[Gal(b1-4)GlcNAc(b1-2)Man(a1-3)]Man(b1-4)GlcNAc(b1-4)[Fuc(a1-6)]GlcNAc
# Outline: (§1)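 Glycan array data came from 3228 arrays in the Consortium for Functional Glycomics database, and only arrays with an available protein sequence were kept. Glycan names were put into IUPAC-condensed notation, and columns mapping to the same glycan were averaged. The binding signal is a within-array Z-score, averaged across arrays of one protein sequence run at different concentrations or buffers and across linkers. A negative Z-score can be read as non-binding.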
# [2] = target: Gal(b1-4)GlcNAc(b1-2)[Gal(b1-4)GlcNAc(b1-6)]Man(a1-6)[GlcNAc(b1-4)][Gal(b1-4)GlcNAc(b1-2)Man(a1-3)]Man(b1-4)GlcNAc(b1-4)GlcNAc
# Outline: as §1
# [3] = target: Gal(b1-4)GlcNAc(b1-2)[Gal(b1-4)GlcNAc(b1-6)]Man(a1-6)[GlcNAc(b1-4)][Gal(b1-4)GlcNAc(b1-2)[Gal(b1-4)GlcNAc(b1-4)]Man(a1-3)]Man(b1-4)GlcNAc(b1-4)[Fuc(a1-6)]GlcNAc
# Outline: as §1
# [4] = target: Gal(b1-4)GlcNAc(b1-3)Gal(b1-3)GalNAc
# Outline: as §1
# [5] = target: Gal(b1-4)GlcNAc(b1-3)Gal(b1-3)GlcNAc
# Outline: as §1
# [6] = target: Gal(b1-4)GlcNAc(b1-3)Gal(b1-4)Glc
# Outline: as §1
# [7] = target: Gal(b1-4)GlcNAc(b1-3)Gal(b1-4)GlcNAc
# Outline: as §1
# [8] = target: Gal(b1-4)GlcNAc(b1-3)Gal(b1-4)GlcNAc(b1-2)Man(a1-3)[Gal(b1-4)GlcNAc(b1-3)Gal(b1-4)GlcNAc(b1-2)Man(a1-6)]Man(b1-4)GlcNAc(b1-4)GlcNAc
# Outline: as §1
# [9] = target: Gal(b1-4)GlcNAc(b1-3)Gal(b1-4)GlcNAc(b1-2)Man(a1-3)[Gal(b1-4)GlcNAc(b1-3)Gal(b1-4)GlcNAc(b1-2)Man(a1-6)]Man(b1-4)GlcNAc(b1-4)[Fuc(a1-6)]GlcNAc
# Outline: as §1
# [10] = target: Gal(b1-4)GlcNAc(b1-3)Gal(b1-4)GlcNAc(b1-2)[Gal(b1-4)GlcNAc(b1-3)Gal(b1-4)GlcNAc(b1-6)]Man(a1-6)[Gal(b1-4)GlcNAc(b1-3)Gal(b1-4)GlcNAc(b1-2)Man(a1-3)]Man(b1-4)GlcNAc(b1-4)GlcNAc
# Outline: as §1
# [11] = target: Gal(b1-4)GlcNAc(b1-3)Gal(b1-4)GlcNAc(b1-2)[Gal(b1-4)GlcNAc(b1-3)Gal(b1-4)GlcNAc(b1-6)]Man(a1-6)[Gal(b1-4)GlcNAc(b1-3)Gal(b1-4)GlcNAc(b1-2)Man(a1-3)]Man(b1-4)GlcNAc(b1-4)[Fuc(a1-6)]GlcNAc
# Outline: as §1
# [12] = target: Gal(b1-4)GlcNAc(b1-3)Gal(b1-4)GlcNAc(b1-3)Gal(b1-4)GlcNAc
# Outline: as §1
# [13] = target: Gal(b1-4)GlcNAc(b1-3)Gal(b1-4)GlcNAc(b1-3)Gal(b1-4)GlcNAc(b1-2)Man(a1-3)[Gal(b1-4)GlcNAc(b1-3)Gal(b1-4)GlcNAc(b1-3)Gal(b1-4)GlcNAc(b1-2)Man(a1-6)]Man(b1-4)GlcNAc(b1-4)GlcNAc
# Outline: as §1
# [14] = target: Gal(b1-4)GlcNAc(b1-3)Gal(b1-4)GlcNAc(b1-3)Gal(b1-4)GlcNAc(b1-2)Man(a1-3)[Gal(b1-4)GlcNAc(b1-3)Gal(b1-4)GlcNAc(b1-3)Gal(b1-4)GlcNAc(b1-2)Man(a1-6)]Man(b1-4)GlcNAc(b1-4)[Fuc(a1-6)]GlcNAc
# Outline: as §1
# [15] = target: Gal(b1-4)GlcNAc(b1-3)Gal(b1-4)GlcNAc(b1-3)Gal(b1-4)GlcNAc(b1-2)[Gal(b1-4)GlcNAc(b1-3)Gal(b1-4)GlcNAc(b1-3)Gal(b1-4)GlcNAc(b1-6)]Man(a1-6)[Gal(b1-4)GlcNAc(b1-3)Gal(b1-4)GlcNAc(b1-3)Gal(b1-4)GlcNAc(b1-2)Man(a1-3)]Man(b1-4)GlcNAc(b1-4)[Fuc(a1-6)]GlcNAc
# Outline: as §1
# [16] = target: Gal(b1-4)GlcNAc(b1-3)Gal(b1-4)GlcNAc(b1-3)Gal(b1-4)GlcNAc(b1-3)Gal(b1-4)GlcNAc(b1-2)Man(a1-3)[Gal(b1-4)GlcNAc(b1-3)Gal(b1-4)GlcNAc(b1-3)Gal(b1-4)GlcNAc(b1-3)Gal(b1-4)GlcNAc(b1-2)Man(a1-6)]Man(b1-4)GlcNAc(b1-4)GlcNAc
# Outline: as §1
# [17] = target: Gal(b1-4)GlcNAc(b1-3)Gal(b1-4)GlcNAc(b1-3)Gal(b1-4)GlcNAc(b1-3)Gal(b1-4)GlcNAc(b1-2)Man(a1-3)[Gal(b1-4)GlcNAc(b1-3)Gal(b1-4)GlcNAc(b1-3)Gal(b1-4)GlcNAc(b1-3)Gal(b1-4)GlcNAc(b1-2)Man(a1-6)]Man(b1-4)GlcNAc(b1-4)[Fuc(a1-6)]GlcNAc
# Outline: as §1
# [18] = target: Gal(b1-4)GlcNAc(b1-3)Gal(b1-4)GlcNAc(b1-3)Gal(b1-4)GlcNAc(b1-3)Gal(b1-4)GlcNAc(b1-2)[Gal(b1-4)GlcNAc(b1-3)Gal(b1-4)GlcNAc(b1-3)Gal(b1-4)GlcNAc(b1-3)Gal(b1-4)GlcNAc(b1-6)]Man(a1-6)[Gal(b1-4)GlcNAc(b1-3)Gal(b1-4)GlcNAc(b1-3)Gal(b1-4)GlcNAc(b1-3)Gal(b1-4)GlcNAc(b1-2)Man(a1-3)]Man(b1-4)GlcNAc(b1-4)[Fuc(a1-6)]GlcNAc
# Outline: as §1
# [19] = target: Gal(b1-4)GlcNAc(b1-3)Gal(b1-4)GlcNAc(b1-3)Gal(b1-4)GlcNAc(b1-3)Gal(b1-4)GlcNAc(b1-3)Gal(b1-4)GlcNAc(b1-2)Man(a1-3)[Gal(b1-4)GlcNAc(b1-3)Gal(b1-4)GlcNAc(b1-3)Gal(b1-4)GlcNAc(b1-3)Gal(b1-4)GlcNAc(b1-3)Gal(b1-4)GlcNAc(b1-2)Man(a1-6)]Man(b1-4)GlcNAc(b1-4)GlcNAc
# Outline: as §1
# [20] = target: Gal(b1-4)GlcNAc(b1-3)Gal(b1-4)GlcNAc(b1-3)Gal(b1-4)GlcNAc(b1-3)Gal(b1-4)GlcNAc(b1-3)Gal(b1-4)GlcNAc(b1-2)Man(a1-3)[Gal(b1-4)GlcNAc(b1-3)Gal(b1-4)GlcNAc(b1-3)Gal(b1-4)GlcNAc(b1-3)Gal(b1-4)GlcNAc(b1-3)Gal(b1-4)GlcNAc(b1-2)Man(a1-6)]Man(b1-4)GlcNAc(b1-4)[Fuc(a1-6)]GlcNAc
# Outline: as §1
# [21] = target: Gal(b1-4)GlcNAc(b1-3)Gal(b1-4)GlcNAc(b1-3)Gal(b1-4)GlcNAc(b1-3)Gal(b1-4)GlcNAc(b1-3)Gal(b1-4)GlcNAc(b1-2)[Gal(b1-4)GlcNAc(b1-3)Gal(b1-4)GlcNAc(b1-3)Gal(b1-4)GlcNAc(b1-3)Gal(b1-4)GlcNAc(b1-3)Gal(b1-4)GlcNAc(b1-6)]Man(a1-6)[Gal(b1-4)GlcNAc(b1-3)Gal(b1-4)GlcNAc(b1-3)Gal(b1-4)GlcNAc(b1-3)Gal(b1-4)GlcNAc(b1-3)Gal(b1-4)GlcNAc(b1-2)Man(a1-3)]Man(b1-4)GlcNAc(b1-4)[Fuc(a1-6)]GlcNAc
# Outline: as §1
# [22] = target: Gal(b1-4)GlcNAc(b1-3)Gal(b1-4)GlcNAc(b1-3)Gal(b1-4)GlcNAc(b1-3)Gal(b1-4)GlcNAc(b1-3)Gal(b1-4)GlcNAc(b1-3)Gal(b1-4)GlcNAc(b1-2)Man(a1-3)[Gal(b1-4)GlcNAc(b1-3)Gal(b1-4)GlcNAc(b1-3)Gal(b1-4)GlcNAc(b1-3)Gal(b1-4)GlcNAc(b1-3)Gal(b1-4)GlcNAc(b1-3)Gal(b1-4)GlcNAc(b1-2)Man(a1-6)]Man(b1-4)GlcNAc(b1-4)GlcNAc
# Outline: as §1
# [23] = target: Gal(b1-4)GlcNAc(b1-3)Gal(b1-4)GlcNAc(b1-3)GalNAc
# Outline: as §1
# [24] = target: Gal(b1-4)GlcNAc(b1-3)Gal(b1-4)GlcNAc(b1-3)[Gal(b1-4)GlcNAc(b1-3)Gal(b1-4)GlcNAc(b1-6)]GalNAc
# Outline: as §1
# [25] = target: Gal(b1-4)GlcNAc(b1-3)Gal(b1-4)GlcNAc(b1-6)[Gal(b1-3)]GalNAc
# Outline: as §1
# [26] = target: Gal(b1-4)GlcNAc(b1-3)Gal(b1-4)[Fuc(a1-3)]GlcNAc(b1-3)Gal(b1-4)[Fuc(a1-3)]GlcNAc
# Outline: as §1
# [27] = target: Gal(b1-4)GlcNAc(b1-3)GalNAc
# Outline: as §1
# [28] = target: Gal(b1-4)GlcNAc(b1-3)[Fuc(a1-3)GlcNAc(b1-6)]Gal(b1-4)Glc
# Outline: as §1
# [29] = target: Gal(b1-4)GlcNAc(b1-3)[Gal(b1-4)GlcNAc(b1-6)]Gal(b1-4)GlcNAc
# Outline: as §1
# [30] = target: Gal(b1-4)GlcNAc(b1-3)[GlcNAc(b1-6)]Gal(b1-4)GlcNAc
# Outline: as §1
# [31] = target: Gal(b1-4)GlcNAc(b1-6)Gal(b1-4)GlcNAc
# Outline: as §1
# [32] = target: Gal(b1-4)GlcNAc(b1-6)GalNAc
# Outline: as §1
# [33] = target: Gal(b1-4)GlcNAc(b1-6)[Gal(b1-3)]GalNAc
# Outline: as §1
# [34] = target: Gal(b1-4)GlcNAc(b1-6)[Gal(b1-4)GlcNAc(b1-3)]GalNAc
# Outline: as §1
# [35] = target: Gal(b1-4)GlcNAc6P
# Outline: as §1
# [36] = target: Gal(b1-6)Gal
# Outline: as §1
# [37] = target: Gal3S(b1-3)GalNAc
# Outline: as §1
# [38] = target: Gal3S(b1-3)GlcNAc
# Outline: as §1
binder,measurement,setting,value
"AT5G24760(45) (Arabidopsis thaliana), Q8LEB2 (protein) MSASSSSFEQPQVITCNAAVAWRAGEPLVMEEVEVSPPQPLEIRIKVVCTSLCRSDLSAWESQSLLPRIFGHEAAGIVESIGEGVTEFEKGDHVLAVFTGECGSCRHCISGKSNMCQVLGMERKGLMHSDQKTRFSIKGKPVYHYCAVSSFSEYTVVHSGCAVKVDPLAPLHKICLLSCGVAAGLGAAWNVADVQKGSSVVIFGLGTVGLSVAQGAKLRGAAQILGVDINPAKAEQAKTFGVTDFINSNDLSEPIPQVIKRMTGGGADFSFECVGDTGIATTALQSCSDGWGMTVTLGVPKAKPEVSAHYGLFLSGKSLKGTLFGGWKPKSDLPSLIDKYMNKEIMIDEFITHNLSFDEINKAFVLMREGKCLRCVLHMPK",glycan array binding signal (z-score),[1],-0.862
same,glycan array binding signal (z-score),[2],-1.03
same,glycan array binding signal (z-score),[3],-0.8
same,glycan array binding signal (z-score),[4],-0.403
same,glycan array binding signal (z-score),[5],-0.96
same,glycan array binding signal (z-score),[6],0.169
same,glycan array binding signal (z-score),[7],0.209
same,glycan array binding signal (z-score),[8],0.464
same,glycan array binding signal (z-score),[9],0.309
same,glycan array binding signal (z-score),[10],-0.397
same,glycan array binding signal (z-score),[11],-0.405
same,glycan array binding signal (z-score),[12],-0.696
same,glycan array binding signal (z-score),[13],-0.272
same,glycan array binding signal (z-score),[14],0.03
same,glycan array binding signal (z-score),[15],1.46
same,glycan array binding signal (z-score),[16],-0.516
same,glycan array binding signal (z-score),[17],-0.686
same,glycan array binding signal (z-score),[18],-0.779
same,glycan array binding signal (z-score),[19],-0.85
same,glycan array binding signal (z-score),[20],-0.823
same,glycan array binding signal (z-score),[21],-0.889
same,glycan array binding signal (z-score),[22],-0.887
same,glycan array binding signal (z-score),[23],-0.539
same,glycan array binding signal (z-score),[24],-0.992
same,glycan array binding signal (z-score),[25],-0.013
same,glycan array binding signal (z-score),[26],-0.804
same,glycan array binding signal (z-score),[27],-0.558
same,glycan array binding signal (z-score),[28],-0.055
same,glycan array binding signal (z-score),[29],-0.516
same,glycan array binding signal (z-score),[30],-0.001
same,glycan array binding signal (z-score),[31],0.709
same,glycan array binding signal (z-score),[32],1.23
same,glycan array binding signal (z-score),[33],-0.485
same,glycan array binding signal (z-score),[34],-0.772
same,glycan array binding signal (z-score),[35],-0.892
same,glycan array binding signal (z-score),[36],0.729
same,glycan array binding signal (z-score),[37],-0.241
same,glycan array binding signal (z-score),[38],0.716

# Reprinted at random: two records from the list.
binder,measurement,setting,value
"AT5G24760(45) (Arabidopsis thaliana), Q8LEB2 (protein) MSASSSSFEQPQVITCNAAVAWRAGEPLVMEEVEVSPPQPLEIRIKVVCTSLCRSDLSAWESQSLLPRIFGHEAAGIVESIGEGVTEFEKGDHVLAVFTGECGSCRHCISGKSNMCQVLGMERKGLMHSDQKTRFSIKGKPVYHYCAVSSFSEYTVVHSGCAVKVDPLAPLHKICLLSCGVAAGLGAAWNVADVQKGSSVVIFGLGTVGLSVAQGAKLRGAAQILGVDINPAKAEQAKTFGVTDFINSNDLSEPIPQVIKRMTGGGADFSFECVGDTGIATTALQSCSDGWGMTVTLGVPKAKPEVSAHYGLFLSGKSLKGTLFGGWKPKSDLPSLIDKYMNKEIMIDEFITHNLSFDEINKAFVLMREGKCLRCVLHMPK",glycan array binding signal (z-score),[19],-0.85
same,glycan array binding signal (z-score),[5],-0.96
